No constants are given. Whether binding was seen depends on the method and setting. Some results given as binding are weak or reduced against the parent protein; the word gives no strength.
Key:
[1] = target: His6-tagged Spc24 (human Ndc80 complex) (human) (UniProt Q8NBT2); experiment: co-purification (Ni-NTA affinity, then SEC); four subunits co-expressed in E. coli from two bicistronic plasmids, only Spc24 His6-tagged; Ni-NTA, then Superdex 200 16/60; Coomassie gels in Fig. S5
[2] = target: His6-tagged Spc24 (yeast Ndc80 complex) (yeast) (UniProt Q04477); experiment: as above

The chains behind the UniProt entries cited, without tags or fusion partners.
UniProt Q8NBT2: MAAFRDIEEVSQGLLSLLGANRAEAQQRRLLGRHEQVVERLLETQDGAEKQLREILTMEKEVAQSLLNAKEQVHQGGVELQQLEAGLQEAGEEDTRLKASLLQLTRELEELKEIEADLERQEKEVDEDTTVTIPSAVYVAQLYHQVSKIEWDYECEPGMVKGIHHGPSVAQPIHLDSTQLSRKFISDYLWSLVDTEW
UniProt Q04477: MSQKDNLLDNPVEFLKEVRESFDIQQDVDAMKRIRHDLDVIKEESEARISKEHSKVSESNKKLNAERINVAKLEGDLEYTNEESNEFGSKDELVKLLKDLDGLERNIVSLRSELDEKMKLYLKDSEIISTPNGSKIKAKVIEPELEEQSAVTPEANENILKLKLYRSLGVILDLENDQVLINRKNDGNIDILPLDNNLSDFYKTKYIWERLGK
UniProt Q9HBM1: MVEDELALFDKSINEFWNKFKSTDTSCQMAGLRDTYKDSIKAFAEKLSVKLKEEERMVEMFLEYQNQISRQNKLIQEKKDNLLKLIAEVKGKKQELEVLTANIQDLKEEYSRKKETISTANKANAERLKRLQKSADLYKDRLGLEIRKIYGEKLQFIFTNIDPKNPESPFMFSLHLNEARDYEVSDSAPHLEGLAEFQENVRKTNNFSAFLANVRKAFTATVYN
UniProt P40460: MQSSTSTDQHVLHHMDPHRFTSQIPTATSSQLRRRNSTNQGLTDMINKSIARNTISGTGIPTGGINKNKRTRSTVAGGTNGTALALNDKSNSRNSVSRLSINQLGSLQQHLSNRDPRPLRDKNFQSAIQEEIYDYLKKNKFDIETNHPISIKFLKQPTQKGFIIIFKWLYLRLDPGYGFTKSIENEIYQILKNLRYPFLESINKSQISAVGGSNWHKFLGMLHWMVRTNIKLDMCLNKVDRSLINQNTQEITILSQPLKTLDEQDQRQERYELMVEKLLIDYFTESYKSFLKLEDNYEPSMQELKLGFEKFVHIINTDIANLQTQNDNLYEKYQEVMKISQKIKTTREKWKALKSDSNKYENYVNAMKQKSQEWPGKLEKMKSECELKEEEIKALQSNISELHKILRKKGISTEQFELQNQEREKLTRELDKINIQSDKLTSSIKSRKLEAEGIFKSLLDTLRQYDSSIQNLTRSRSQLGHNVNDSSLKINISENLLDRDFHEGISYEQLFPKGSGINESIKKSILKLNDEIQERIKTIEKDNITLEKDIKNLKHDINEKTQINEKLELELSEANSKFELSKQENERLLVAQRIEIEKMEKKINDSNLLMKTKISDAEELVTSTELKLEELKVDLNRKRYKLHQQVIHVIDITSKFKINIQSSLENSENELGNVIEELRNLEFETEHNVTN
UniProt O14777: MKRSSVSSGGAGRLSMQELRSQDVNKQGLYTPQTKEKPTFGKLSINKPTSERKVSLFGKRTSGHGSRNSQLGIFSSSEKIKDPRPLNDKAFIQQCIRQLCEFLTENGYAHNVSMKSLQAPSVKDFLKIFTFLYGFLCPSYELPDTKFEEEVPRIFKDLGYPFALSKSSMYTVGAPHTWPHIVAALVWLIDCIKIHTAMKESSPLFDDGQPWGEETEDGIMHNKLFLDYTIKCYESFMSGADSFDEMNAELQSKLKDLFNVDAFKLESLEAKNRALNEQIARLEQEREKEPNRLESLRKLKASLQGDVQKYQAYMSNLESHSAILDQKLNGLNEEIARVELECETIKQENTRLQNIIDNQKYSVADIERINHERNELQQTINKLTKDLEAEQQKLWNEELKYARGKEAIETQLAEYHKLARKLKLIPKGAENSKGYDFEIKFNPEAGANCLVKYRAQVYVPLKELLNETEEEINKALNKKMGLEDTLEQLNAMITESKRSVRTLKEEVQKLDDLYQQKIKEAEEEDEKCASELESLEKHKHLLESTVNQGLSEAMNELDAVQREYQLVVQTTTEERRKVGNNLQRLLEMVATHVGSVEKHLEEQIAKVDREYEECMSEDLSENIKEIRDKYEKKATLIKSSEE
UniProt Q9BZD4: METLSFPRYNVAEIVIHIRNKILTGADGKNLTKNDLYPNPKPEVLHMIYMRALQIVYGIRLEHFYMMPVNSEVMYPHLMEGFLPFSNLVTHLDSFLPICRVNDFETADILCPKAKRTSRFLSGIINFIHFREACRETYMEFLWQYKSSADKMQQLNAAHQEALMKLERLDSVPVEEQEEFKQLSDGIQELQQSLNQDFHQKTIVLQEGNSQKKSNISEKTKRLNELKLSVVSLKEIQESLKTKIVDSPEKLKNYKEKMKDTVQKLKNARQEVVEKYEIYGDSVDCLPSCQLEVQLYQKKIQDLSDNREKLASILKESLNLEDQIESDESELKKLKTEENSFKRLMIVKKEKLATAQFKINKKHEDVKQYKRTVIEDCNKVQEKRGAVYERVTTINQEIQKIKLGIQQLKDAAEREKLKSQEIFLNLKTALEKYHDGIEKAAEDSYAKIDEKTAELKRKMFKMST
UniProt P33895: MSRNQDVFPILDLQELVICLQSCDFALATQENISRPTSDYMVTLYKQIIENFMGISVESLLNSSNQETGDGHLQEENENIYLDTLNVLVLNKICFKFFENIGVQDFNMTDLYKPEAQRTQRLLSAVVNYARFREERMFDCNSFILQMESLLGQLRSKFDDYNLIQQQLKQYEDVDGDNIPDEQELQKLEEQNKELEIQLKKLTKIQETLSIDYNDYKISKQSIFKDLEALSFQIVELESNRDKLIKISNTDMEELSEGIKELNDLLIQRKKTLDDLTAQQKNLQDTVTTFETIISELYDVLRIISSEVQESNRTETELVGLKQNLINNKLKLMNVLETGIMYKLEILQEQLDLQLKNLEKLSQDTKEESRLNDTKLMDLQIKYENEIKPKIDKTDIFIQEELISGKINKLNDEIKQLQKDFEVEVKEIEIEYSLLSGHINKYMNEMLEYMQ

Row | Substance | binding [1] | binding [2]
1 | Spc25 (human Ndc80 complex) (from UniProt Q9HBM1 1-224) | binds | 
2 | yeast Ndc80 (from UniProt P40460 1-691) |  | binds

The next lines start with the values.

Row | binding [1] | binding [2] | Substance
3 | binds |  | human Hec1 (from UniProt O14777 1-642)
4 | binds |  | human Nuf2 (from UniProt Q9BZD4 1-464)
5 |  | binds | yeast Nuf2 (from UniProt P33895 1-451)
